For this test, the system named is P. falciparum-infected erythrocytes. Put plainly: Total choline entry into P. falciparum-infected erythrocytes. It counts as cell-based. Conditions: 150 µM furosemide, 8 min pre-incubation.

Take `NS(=O)(=O)c1cc(C(=O)O)c(NCc2ccco2)cc1Cl` [furosemide, reference compound]: the “Effect on choline uptake into IRBC” value is recorded as “markedly decreased”.

The record behind these values is article PMC3437492 (British Journal of Pharmacology, 2012).
